Results taken from PMC8639830.
No constants are given. Whether binding was seen depends on the method and setting. Binding seen in cells or lysates may run through a third protein. Some entries that bind do so weakly or less than the wild type.

Sequences of proteins named here, by UniProt entry; tags and fusion partners are left off.
UniProt P37231: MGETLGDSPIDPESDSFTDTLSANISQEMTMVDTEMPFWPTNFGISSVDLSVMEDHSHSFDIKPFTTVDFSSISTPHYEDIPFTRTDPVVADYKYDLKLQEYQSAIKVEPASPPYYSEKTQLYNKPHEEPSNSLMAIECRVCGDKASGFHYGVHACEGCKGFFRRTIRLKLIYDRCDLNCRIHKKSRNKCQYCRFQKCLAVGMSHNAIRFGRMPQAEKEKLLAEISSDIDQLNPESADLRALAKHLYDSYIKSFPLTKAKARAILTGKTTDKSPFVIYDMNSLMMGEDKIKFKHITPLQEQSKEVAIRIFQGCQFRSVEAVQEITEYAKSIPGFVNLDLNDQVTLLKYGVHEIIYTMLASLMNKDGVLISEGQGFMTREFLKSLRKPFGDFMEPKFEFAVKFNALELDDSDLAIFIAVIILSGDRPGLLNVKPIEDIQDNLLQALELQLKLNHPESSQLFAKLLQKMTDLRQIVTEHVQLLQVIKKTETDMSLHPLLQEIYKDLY
UniProt O75925: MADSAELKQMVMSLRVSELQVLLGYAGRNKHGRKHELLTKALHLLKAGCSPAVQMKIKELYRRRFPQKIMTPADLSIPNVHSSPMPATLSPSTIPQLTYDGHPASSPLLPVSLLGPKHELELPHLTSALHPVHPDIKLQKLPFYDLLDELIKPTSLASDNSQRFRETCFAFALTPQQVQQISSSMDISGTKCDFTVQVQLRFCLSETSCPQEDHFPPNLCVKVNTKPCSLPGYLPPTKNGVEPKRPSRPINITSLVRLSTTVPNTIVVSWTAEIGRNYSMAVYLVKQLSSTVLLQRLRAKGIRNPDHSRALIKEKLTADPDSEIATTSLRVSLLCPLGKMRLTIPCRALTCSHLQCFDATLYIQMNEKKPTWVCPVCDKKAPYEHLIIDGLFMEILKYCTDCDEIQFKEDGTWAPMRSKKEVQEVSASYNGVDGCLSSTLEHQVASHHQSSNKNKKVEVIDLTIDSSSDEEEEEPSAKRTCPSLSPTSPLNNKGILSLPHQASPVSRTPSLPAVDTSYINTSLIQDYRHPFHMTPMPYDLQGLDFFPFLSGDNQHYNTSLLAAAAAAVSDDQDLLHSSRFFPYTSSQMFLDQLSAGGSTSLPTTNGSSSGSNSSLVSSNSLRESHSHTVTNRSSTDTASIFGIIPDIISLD

Target: Peroxisome proliferator-activated receptor γ (PPAR-γ) (UniProt P37231)
Experiment: co-IP; SC4 cells transfected with PIAS1 and PPAR-γ plasmids; lysed in IP lysis buffer with protease inhibitor; lysate with antibodies against Flag, HA or IgG and protein A Sepharose overnight at 4 °C; beads rinsed three times; western blot for PIAS1 and PPAR-γ

binding: binds
Substance: Protein inhibitor of activated STAT1 (PIAS1) (from UniProt O75925 1-651)
